Test results taken from publication PMC7057950.
No constants are given. Whether binding was seen depends on the method and setting. Some results given as binding are weak or reduced against the parent protein; the word gives no strength.

Protein sequences, listed by entry. Tags and fused reporters are not part of them. Lines headed by an entry give the natural chain unless they say otherwise; changes in a name come on top.
UniProt O95433: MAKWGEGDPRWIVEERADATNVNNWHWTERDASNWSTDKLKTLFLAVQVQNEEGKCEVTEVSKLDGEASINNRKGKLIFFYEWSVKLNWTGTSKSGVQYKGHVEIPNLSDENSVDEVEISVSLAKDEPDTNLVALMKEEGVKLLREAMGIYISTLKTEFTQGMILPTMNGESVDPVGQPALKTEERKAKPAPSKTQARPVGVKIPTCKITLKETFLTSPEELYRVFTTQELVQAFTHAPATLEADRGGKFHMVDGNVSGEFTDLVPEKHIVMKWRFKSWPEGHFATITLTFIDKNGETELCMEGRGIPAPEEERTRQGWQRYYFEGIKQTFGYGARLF

Molecular target: Aha1-FAM (FAM-labelled Aha1 used with the human Hsp90β variants) (UniProt O95433)
Test: AUC; 0.5 µM Aha1-FAM with 3 µM human Hsp90β variant, no nucleotide, 40 mM Hepes pH 7.5, 20 mM KCl, 5 mM MgCl2, 2 mM DTT, 42,000 rpm, 20 °C, fluorescence detection, dc/dt plots; both purified

binding	Substance
binds	human Hsp90β K607A (from UniProt P08238 1-724)
binds	human Hsp90β K607R (from UniProt P08238 1-724)
binds	human Hsp90β K607I (from UniProt P08238 1-724)

The next lines start with the substance.

Substance	binding
human Hsp90β, wild type (from UniProt P08238 1-724)	binds
human Hsp90β K607E (from UniProt P08238 1-724)	binds
